This is one part of the list. Shown are side measurements of this screen, not its main read-out; they come without a call. Most of these compounds were active or inconclusive in the main read-out, so they are no random draw. The note in brackets gives the kind of curve behind each potency; many fits are weak.
Test: qHTS Assay for Lipid Storage Modulators in Drosophila S3 Cells;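 as to cell number change: cells counted by Cell Tracker Red CMTPX staining in the red channel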
Settings: BODIPY lipid droplet fluorescence, 18-24 h; for cell number change: measured here: cell count max response, cells fed with added oleic acid
In short: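 Laser-scanning cytometry quantifies lipid droplet accumulation (500–530 nm total intensity; droplet/cell object ratio) in oleic acid-fed (400 uM added) Drosophila S3 cells treated with a concentration series. 20 uM Triacsin C defined 100% inhibition.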

[1] = measured here: cell number channel AC50, cells fed with added oleic acid
[2] = measured here: lipid fluorescence (Fed channel) AC50, cells fed with added oleic acid

| Compound | cell number change | AC50 [1] | AC50 [2] |
| --- | --- | --- | --- |
| CCOc1ccccc1N1CC(C(=O)N(Cc2nnc(-c3ccccc3Cl)o2)C2CC2)CC1=O (centres undefined) | -10.2% |  |  |
| CC1(C)Cc2c(C#N)c(N3CCN(C(=O)c4ccccc4Cl)CC3)nc(-c3ccco3)c2CS1 | -46.3% | 8.2 µM [falling, partial curve, poor fit] |  |
| Cc1ccc(C(=O)Nc2cnc3ccccc3c2)cc1 | 65.9% | 0.58 µM [rising, full curve] |  |
| Cc1cccc(C(=O)NNC2=CC(=O)CC(C)(C)C2)c1O | 7.79% |  | 23.1 µM [rising, single point] |
| CC(=O)c1ccccc1NC(=O)CN1C(=O)CS/C1=C\c1nc(-c2ccc(C)cc2)cs1 | 10.2% |  |  |
| COc1ccc(NC(=O)c2cccnc2)c(OC)c1 | -1.08% |  | 0.13 µM [rising, full curve, poor fit] |
| COc1ccc2cc(C=NS(=O)(=O)c3ccc(C)cc3)n(C)c2c1 | -12% |  | 0.092 µM [rising, full curve, poor fit] |
| CS(=O)(=O)N(Cc1ccccc1)c1ccc(C(=O)N2CCN(c3cccc(Cl)c3)CC2)cc1 | 10.8% |  |  |
| CCOc1ccc(-c2n[nH]c(C)c2Oc2ccccc2OC)c(O)c1 | -52.6% | 11.6 µM [falling, partial curve] | 18.4 µM [falling, partial curve] |
| CCOC(=O)[C@@H]1[C@H]2COc3ccccc3[C@@H]2N2C(=O)N(c3ccccc3)C(=O)[C@@]12C | 21% |  | 29.1 µM [rising, single point] |
| COCCN1CCN(Cc2cn(C)nc2-c2ccc(Oc3ccccc3)cc2)CC1 | -14.1% |  |  |
| CCCN(CCC)CCNC(=O)c1cc2c(-c3ccc(Cl)cc3)nn(C)c2s1 | 3.9% |  |  |
| Cc1ccccc1S(=O)(=O)Cc1ccc(C(=O)N2CCN(c3ccc(F)cc3)CC2)o1 | -39% | 13 µM [falling, partial curve, poor fit] | 18.4 µM [falling, partial curve, poor fit] |
| CCOC(=O)C(=O)Nc1ccc(S(=O)(=O)N2CCOCC2)cc1OC | -36.7% | 8.2 µM [falling, partial curve, poor fit] | 1.84 µM [falling, full curve, poor fit] |
| CCn1c(COC(=O)CNC(=O)c2ccccc2)nc2cc(S(=O)(=O)N(C)C)ccc21 | 24.5% |  |  |
| O=C(CSc1nnc(Cc2ccccc2)o1)N1CCCc2ccccc21 | 25% |  |  |
| O=C(Nc1ccc2c(c1)OCCO2)C1CCN(C(=O)c2ccc(F)cc2)CC1 | 34.8% | 29.1 µM [rising, single point] |  |
| Cc1nc2nc(C)c(CCC(=O)NCCC3=CCCCC3)c(C)n2n1 | 8.39% |  | 4.11 µM [falling, single point] |
| Nc1nsnc1C(=O)NCCO | -56.3% | 0.411 µM [falling, full curve] |  |
| CCCCn1cnc2c(sc3nc4c(cc32)CSC(C)(C)C4)c1=O | 16.5% |  | 2.06 µM [rising, full curve] |

| Compound | cell number change | AC50 [1] | AC50 [2] |
| --- | --- | --- | --- |
| O=c1[nH]c(=O)n(Cc2ccco2)c2c1C(C(F)(F)F)(C(F)(F)F)N=C(CCc1ccccc1)N2 | -28.1% |  | 29.1 µM [falling, single point] |
| CS/C(N)=N/N=C/c1ccc2c(c1)OCO2 |  |  | 2.06 µM [rising, partial curve] |
| COc1ccc(NC(=O)c2ccccn2)cc1 | 19.5% |  | 6.51 µM [falling, partial curve, poor fit] |
| COc1ccc(-c2cn3nc4c(nc3n2)CCCC4)cc1 | 69.5% | 18.4 µM [rising, single point] |  |
| Cc1cccc(C)c1NC(=O)CN(C)C(=O)CN1C(=O)NC2(CCCC2)C1=O | -23% |  | 29.1 µM [falling, single point] |
| O=Cc1ccc(OCc2cccc(C(F)(F)F)c2)cc1O | -7.29% | 3.66 µM [falling, single point] |  |
| Cc1ccc(NC(=O)CSc2nc(=O)n(CCCN3CCOCC3)c3c2CCCC3)cc1F | 18% |  |  |
| CCn1c(SCC(=O)Nc2ccc(F)cc2)nnc1-c1cnccn1 |  |  | 6.51 µM [falling, single point] |
| N#C/C(=C\c1cccc(Br)c1)C(=O)N1CCCCC1 | -40.5% | 16.4 µM [falling, partial curve, poor fit] |  |
| CCCCCCNC(=O)c1c(O)c2ccccc2[nH]c1=O | 9.63% |  |  |
| Cc1[nH]n(-c2ccccc2)c(=O)c1N=Nc1ccccc1 | -20% |  | 32.6 µM [falling, single point] |
| COc1ccc(N=c2oc3c(OC)cccc3cc2C(=O)NCc2ccco2)cc1OC | -20% |  | 0.58 µM [rising, single point] |
| CCN(CC)CCNC(=O)c1cc(-c2ccc(Br)s2)nc2ccccc12 | 10.6% |  | 0.461 µM [rising, full curve] |
| Cc1ccccc1OCC(=O)Nc1ccccc1-c1ccccc1NC(=O)COc1ccccc1C | 24.6% |  | 4.61 µM [rising, partial curve] |
| C/C(=N/NC(=O)c1ccn(C)n1)c1ccncc1 | 7.25% |  | 0.461 µM [falling, partial curve, poor fit] |
| COC(=O)C(=Nc1ccccc1)/C(C(=O)C(=O)N(C)c1ccccc1)=C(\O)c1ccc(Cl)cc1 | 1.76% |  |  |
| Fc1ccc(CSc2nc3ncccc3[nH]2)cc1 | 7.12% |  | 5.8 µM [falling, single point] |
| CCOc1ccc(-n2cc(C(=O)N3CCCCCC3)c3cc(OC)c(OC)cc3c2=O)cc1 | -23.7% |  | 32.6 µM [falling, single point] |
| CCC1(c2ccccc2)NC(=O)N(CC(=O)Nc2cccc(S(=O)(=O)N3CCCC3)c2)C1=O (centres undefined) | -7.16% |  | 2.59 µM [rising, partial curve, poor fit] |
| Cc1cc(C)n(CC(=O)NCc2cc(-c3nn(C)c(=O)c4ccccc34)ccc2C)n1 | -17.4% |  | 0.206 µM [rising, full curve, poor fit] |

| Compound | cell number change | AC50 [1] | AC50 [2] |
| --- | --- | --- | --- |
| COc1ccc(-c2nn(-c3ccccc3)cc2/C=N/NC(=O)c2cccc(S(=O)(=O)Nc3ccccc3OC)c2)cc1 | 27.2% |  | 0.13 µM [rising, full curve, poor fit] |
| CC1CCN(C(=O)COC(=O)/C=C/c2ccc(Br)o2)CC1 | -12.6% |  | 0.00461 µM [falling, full curve, poor fit] |
| CC(NC(=O)Cn1cccc1)c1ccccc1 (centres undefined) | 19.4% |  | 25.9 µM [rising, single point] |
| Nc1ccc2nc(SCC(=O)Nc3ccc(N4CCOCC4)c(Cl)c3)sc2c1 | -31.8% | 32.6 µM [falling, single point] | 18.4 µM [falling, partial curve, poor fit] |
| CC(C(=O)N1CCOCC1)N1c2cccc3cccc(c23)S1(=O)=O (centres undefined) | 23% |  | 0.13 µM [falling, full curve, poor fit] |
| CCN1CCCC1CN(Cc1cc2ccc(C)cc2[nH]c1=O)C(=S)Nc1ccc(OC)cc1OC (centres undefined) | 0.302% |  | 8.2 µM [rising, partial curve] |
| N#Cc1ccc(Cl)cc1NC(=O)CSc1nc2nc(-c3cccs3)cc(C(F)(F)F)c2c(=O)[nH]1 | 3.47% |  | 0.13 µM [rising, full curve, poor fit] |
| Cc1cnc(C(=O)Nc2nnc(C)s2)cn1 | -24% | 0.58 µM [falling, single point] | 0.13 µM [falling, full curve, poor fit] |
| O=S(=O)(NCCCSc1ccccc1)c1ccccc1F | 1.39% |  | 29.1 µM [rising, partial curve, poor fit] |
| CCNC(=S)NNC(=O)CCc1nc2cc(Cl)ccc2n(Cc2ccccc2)c1=O | -5.13% |  | 5.17 µM [rising, single point] |
| C=CCn1c(O)c(CN2CCN(Cc3ccccc3)CC2)c(C)c(C#N)c1=O | 23.9% |  | 0.00461 µM [falling, full curve, poor fit] |
| O=C(O)CSc1nc2ccccc2[nH]1 | -43.9% | 0.146 µM [falling, full curve] | 5.8 µM [falling, full curve] |
| Cc1cc2[nH]c3c(c[n+](C)c4ccccc34)c2cc1C | -63.7% | 29.1 µM [falling, partial curve, poor fit] | 1.3 µM [falling, partial curve] |
| CN1CCN(CCOC2Cc3ccccc3Sc3ccc(Cl)cc32)CC1 (centres undefined) | 5.76% |  | 29.1 µM [falling, single point] |
| O=C(NCc1ccco1)c1ccccc1NS(=O)(=O)c1ccc2c(c1)OCCO2 | -0.398% | 0.58 µM [falling, single point] | 6.51 µM [falling, single point] |
| COc1ccc(CCNC(=O)CN(c2cccc([N+](=O)[O-])c2)S(C)(=O)=O)cc1 |  |  | 29.1 µM [falling, single point] |
| CCN(CC)S(=O)(=O)c1cc(NC(=O)C2CC(=O)N(Cc3ccccc3)C2)ccc1Cl (centres undefined) | -4.1% |  | 29.1 µM [falling, single point] |
| COc1cccc2sc(N)nc12 | 14.7% |  | 20.6 µM [falling, single point] |
| Cc1nc2c3c4c(sc3n3c(SCC(=O)NCc5ccco5)nnc3n2n1)COC(C)(C)C4 |  | 1.3 µM [rising, partial curve, poor fit] |  |
| CCCCOc1ccc(Cc2cnc(N)nc2N)cc1 | -22.6% |  | 0.731 µM [falling, partial curve, poor fit] |

Another view of part of the listing above.
Compound	cell number change	AC50 [1]	AC50 [2]
Cc1cc(C)n(CC(=O)NCc2cc(-c3nn(C)c(=O)c4ccccc34)ccc2C)n1	-17.4%		0.206 µM [rising, full curve, poor fit]
COc1ccc(-c2nn(-c3ccccc3)cc2/C=N/NC(=O)c2cccc(S(=O)(=O)Nc3ccccc3OC)c2)cc1	27.2%		0.13 µM [rising, full curve, poor fit]
CC1CCN(C(=O)COC(=O)/C=C/c2ccc(Br)o2)CC1	-12.6%		0.00461 µM [falling, full curve, poor fit]
CC(NC(=O)Cn1cccc1)c1ccccc1 (centres undefined)	19.4%		25.9 µM [rising, single point]
Nc1ccc2nc(SCC(=O)Nc3ccc(N4CCOCC4)c(Cl)c3)sc2c1	-31.8%	32.6 µM [falling, single point]	18.4 µM [falling, partial curve, poor fit]
CC(C(=O)N1CCOCC1)N1c2cccc3cccc(c23)S1(=O)=O (centres undefined)	23%		0.13 µM [falling, full curve, poor fit]
CCN1CCCC1CN(Cc1cc2ccc(C)cc2[nH]c1=O)C(=S)Nc1ccc(OC)cc1OC (centres undefined)	0.302%		8.2 µM [rising, partial curve]
N#Cc1ccc(Cl)cc1NC(=O)CSc1nc2nc(-c3cccs3)cc(C(F)(F)F)c2c(=O)[nH]1	3.47%		0.13 µM [rising, full curve, poor fit]
Cc1cnc(C(=O)Nc2nnc(C)s2)cn1	-24%	0.58 µM [falling, single point]	0.13 µM [falling, full curve, poor fit]
O=S(=O)(NCCCSc1ccccc1)c1ccccc1F	1.39%		29.1 µM [rising, partial curve, poor fit]
CCNC(=S)NNC(=O)CCc1nc2cc(Cl)ccc2n(Cc2ccccc2)c1=O	-5.13%		5.17 µM [rising, single point]
C=CCn1c(O)c(CN2CCN(Cc3ccccc3)CC2)c(C)c(C#N)c1=O	23.9%		0.00461 µM [falling, full curve, poor fit]
O=C(O)CSc1nc2ccccc2[nH]1	-43.9%	0.146 µM [falling, full curve]	5.8 µM [falling, full curve]
Cc1cc2[nH]c3c(c[n+](C)c4ccccc34)c2cc1C	-63.7%	29.1 µM [falling, partial curve, poor fit]	1.3 µM [falling, partial curve]
CN1CCN(CCOC2Cc3ccccc3Sc3ccc(Cl)cc32)CC1 (centres undefined)	5.76%		29.1 µM [falling, single point]
O=C(NCc1ccco1)c1ccccc1NS(=O)(=O)c1ccc2c(c1)OCCO2	-0.398%	0.58 µM [falling, single point]	6.51 µM [falling, single point]
COc1ccc(CCNC(=O)CN(c2cccc([N+](=O)[O-])c2)S(C)(=O)=O)cc1			29.1 µM [falling, single point]
CCN(CC)S(=O)(=O)c1cc(NC(=O)C2CC(=O)N(Cc3ccccc3)C2)ccc1Cl (centres undefined)	-4.1%		29.1 µM [falling, single point]
COc1cccc2sc(N)nc12	14.7%		20.6 µM [falling, single point]
